Results on 2 substances are retold here after paper PMC11844288.

Chains of the proteins cited; added tags and fusions are not shown.
UniProt Q99459: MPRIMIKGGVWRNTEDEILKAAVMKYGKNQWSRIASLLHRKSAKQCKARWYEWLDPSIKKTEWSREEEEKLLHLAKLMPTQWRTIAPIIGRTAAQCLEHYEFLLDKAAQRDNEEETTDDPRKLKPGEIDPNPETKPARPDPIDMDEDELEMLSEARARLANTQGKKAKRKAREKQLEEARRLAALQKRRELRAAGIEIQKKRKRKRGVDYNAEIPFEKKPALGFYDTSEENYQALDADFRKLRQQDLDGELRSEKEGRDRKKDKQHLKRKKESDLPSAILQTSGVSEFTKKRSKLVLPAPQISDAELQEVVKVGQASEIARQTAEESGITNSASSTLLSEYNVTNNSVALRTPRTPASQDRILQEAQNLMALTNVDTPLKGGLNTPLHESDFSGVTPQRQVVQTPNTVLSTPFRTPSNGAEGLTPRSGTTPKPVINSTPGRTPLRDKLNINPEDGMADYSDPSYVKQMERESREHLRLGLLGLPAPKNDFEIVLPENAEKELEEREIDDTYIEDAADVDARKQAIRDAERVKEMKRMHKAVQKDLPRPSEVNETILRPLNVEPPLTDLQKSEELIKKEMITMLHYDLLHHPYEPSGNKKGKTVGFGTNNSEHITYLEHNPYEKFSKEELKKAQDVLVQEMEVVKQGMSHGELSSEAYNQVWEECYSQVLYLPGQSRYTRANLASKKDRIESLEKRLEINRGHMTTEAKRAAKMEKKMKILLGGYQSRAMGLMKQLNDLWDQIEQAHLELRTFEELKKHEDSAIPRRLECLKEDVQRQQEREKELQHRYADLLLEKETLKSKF
UniProt P28482: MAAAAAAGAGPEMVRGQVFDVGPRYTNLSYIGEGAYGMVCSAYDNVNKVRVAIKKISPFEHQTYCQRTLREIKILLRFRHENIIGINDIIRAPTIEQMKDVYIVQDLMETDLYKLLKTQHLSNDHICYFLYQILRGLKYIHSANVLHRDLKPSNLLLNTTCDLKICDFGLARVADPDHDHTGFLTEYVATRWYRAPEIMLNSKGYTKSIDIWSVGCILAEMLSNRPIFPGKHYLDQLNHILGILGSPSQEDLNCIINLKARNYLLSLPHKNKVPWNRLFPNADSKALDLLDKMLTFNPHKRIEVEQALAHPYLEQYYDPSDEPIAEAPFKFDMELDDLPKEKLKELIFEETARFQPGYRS

Assay [1] deals with Cell division cycle 5-like protein (CDC5L) (human) (UniProt Q99459). Briefly: co-IP; protein A/G-agarose beads pre-incubated with antibodies 4 h at 4 C, overnight incubation with proteins (RIPA extract of GC cells) at 4 C, boiled in SDS, Western blot.
The target of assay [2] is MAPK1 (human (endogenous in gastric cancer cells)) (UniProt P28482). The assay is described as above.

Results are given in words; binding and its absence hold for the method and conditions named. In cells and extracts the contact can be indirect. Some results given as binding are weak or reduced against the parent protein; the word gives no strength.

Turning to MAPK1 (from UniProt P28482 1-360), the binding result in assay [1] was “binds”.

For “Cell division cycle 5-like protein (CDC5L) (from UniProt Q99459 1-802)”, the binding result in assay [2] is recorded as “binds”.
